Data from PubChem BioAssay (NCATS).
Inconclusive means that the source gave no clear call. Such entries were picked first, then a sample of the others. For some of these results: A potency beside an inconclusive call is a rough fit, not a confirmed value. The source made the active and inactive calls. The call rests on the fitted dose curve; in most records, active means well fitted curve in the direction sought with a large enough effect; inconclusive means small, poorly fitted or top-dose-only effect, or another doubt; inactive means no such curve, though single readings can be large; an effect the other way counts as inactive or inconclusive.

Assays:
[1] = Quantitative High-Throughput drug screen in 47 multiple myeloma cell lines against the NCATS MIPE library collection: KMS20_JCRB cell viability assay (AID 1918973); conditions: CellTiter-Glo ATP, 48 h; viability (% of DMSO): at 45.8 µM (top of the series); further: nearly all actives have a fitted effect of over 45% in size
In short: (§1)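 qHTS of the MIPE 4.0 collection: 500 myeloma cells/well, 48 h drug exposure at 37C in 5% CO2, then CellTiter-Glo for 5 min at room temperature before luminescence reading.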

[2] = Quantitative High-Throughput drug screen in 47 multiple myeloma cell lines against the NCATS MIPE library collection: KMS21BM_JCRB cell viability assay (AID 1918974); conditions: ATP luminescence, 48 h; viability: at 45.8 µM (top of the series) unless noted
In short: as §1

[3] = Quantitative High-Throughput drug screen in 47 multiple myeloma cell lines against the NCATS MIPE library collection: LP1_DSMZ cell viability assay (AID 1918982); conditions: LP1 myeloma viability, CellTiter-Glo ATP luminescence, 48 h; viability (% of control): at 45.8 µM (top of the series); further: nearly all actives have a fitted effect of over 35% in size
In short: (§2)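 Cells were exposed to library compounds for 48 hours, after which ATP was measured by CellTiter-Glo. Signal was taken as median relative luminescence units.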

[4] = Quantitative High-Throughput drug screen in 47 multiple myeloma cell lines against the NCATS MIPE library collection: L363_DSMZ cell viability assay (AID 1918984); conditions: L363 myeloma viability, CellTiter-Glo ATP luminescence, 48 h; viability (% of control): at 45.8 µM (top of the series); further: nearly all actives have a fitted effect of over 40% in size
In short: as §2

[5] = Quantitative High-Throughput drug screen in 47 multiple myeloma cell lines against the NCATS MIPE library collection: KMS34_JCRB cell viability assay (AID 1918985); conditions: KMS34 myeloma viability, CellTiter-Glo ATP luminescence, 48 h; series mostly up to 45.8 µM; further: nearly all actives have a fitted effect of over 40% in size
In short: as §2

[6] = Quantitative High-Throughput drug screen in 47 multiple myeloma cell lines against the NCATS MIPE library collection: OCIMY7_PLB cell viability assay (AID 1918987); conditions: OCI-MY7 myeloma viability, CellTiter-Glo ATP, 48 h; viability (% of DMSO): at 45.8 µM (top of the series); further: nearly all actives have a fitted effect of over 65% in size
In short: as §2

[7] = Quantitative High-Throughput drug screen in 47 multiple myeloma cell lines against the NCATS MIPE library collection: OCIMY5_PLB cell viability assay (AID 1918988); conditions: OCI-MY5 myeloma viability, ATP luminescence, 48 h; series mostly up to 45.8 µM; further: nearly all actives have a fitted effect of over 65% in size
In short: as §2

[8] = Quantitative High-Throughput drug screen in 47 multiple myeloma cell lines against the NCATS MIPE library collection: SKMM1_PLB cell viability assay (AID 1919863); conditions: SKMM1 myeloma viability, CellTiter-Glo ATP, 48 h; viability: active compounds read low; further: nearly all actives have a fitted effect of over 35% in size
In short: as §2

[9] = Quantitative High-Throughput drug screen in 47 multiple myeloma cell lines against the NCATS MIPE library collection: U266_ATCC cell viability assay (AID 1919864); conditions: U266 myeloma viability, CellTiter-Glo ATP luminescence, 48 h; series mostly up to 45.8 µM; further: nearly all actives have a fitted effect of over 35% in size
In short: as §2

[10] = Quantitative High-Throughput drug screen in 47 multiple myeloma cell lines against the NCATS MIPE library collection: OCIMY1_PLB cell viability assay (AID 1918979); conditions: OCI-MY1 myeloma viability, CellTiter-Glo ATP, 48 h; viability: at 45.8 µM (top of the series) unless noted; further: nearly all actives have a fitted effect of over 35% in size
In short: as §2

[11] = Quantitative High-Throughput drug screen in 47 multiple myeloma cell lines against the NCATS MIPE library collection: XG6_PLB cell viability assay (AID 1919865); conditions: XG6 myeloma viability, CellTiter-Glo ATP luminescence, 48 h; viability (% of control): at 45.8 µM (top of the series); further: nearly all actives have a fitted effect of over 40% in size
In short: as §2

[12] = Quantitative High-Throughput drug screen in 47 multiple myeloma cell lines against the NCATS MIPE library collection: KMS28PE_JCRB cell viability assay (AID 1918983); further: nearly all actives have a fitted effect of over 35% in size
In short: as §2

[13] = Quantitative High-Throughput drug screen in 47 multiple myeloma cell lines against the NCATS MIPE library collection: XG1_PLB cell viability assay (AID 1919866); conditions: CellTiter-Glo ATP, 48 h; viability: at 45.8 µM (top of the series); further: nearly all actives have a fitted effect of over 35% in size
In short: as §2

[14] = Quantitative High-Throughput drug screen in 47 multiple myeloma cell lines against the NCATS MIPE library collection: MOLP8_DSMZ cell viability assay (AID 1918977); conditions: MOLP8 myeloma viability, CellTiter-Glo ATP luminescence, 48 h; viability (% of control): at 45.8 µM (top of the series); further: nearly all actives have a fitted effect of over 45% in size
In short: as §2

[15] = Quantitative High-Throughput drug screen in 47 multiple myeloma cell lines against the NCATS MIPE library collection: MM1S_ATCC cell viability assay (AID 1918980); further: nearly all actives have a fitted effect of over 45% in size
In short: as §2

[16] = Quantitative High-Throughput drug screen in 47 multiple myeloma cell lines against the NCATS MIPE library collection: MM1R_ATCC cell viability assay (AID 1918981); further: nearly all actives have a fitted effect of over 35% in size
In short: as §2

[17] = Quantitative High-Throughput drug screen in 47 multiple myeloma cell lines against the NCATS MIPE library collection: OPM1_PLB cell viability assay (AID 1918989); further: nearly all actives have a fitted effect of over 40% in size
In short: as §2

[18] = Quantitative High-Throughput drug screen in 47 multiple myeloma cell lines against the NCATS MIPE library collection: KMS26_JCRB cell viability assay (AID 1918975); conditions: KMS26 myeloma cells viability, CellTiter-Glo ATP, 48 h; viability (% of DMSO): at 45.8 µM (top of the series); further: nearly all actives have a fitted effect of over 45% in size
In short: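 Steps: seed 500 cells per well; pin-transfer MIPE 4.0 library; incubate 48 h at 37C, 5% CO2, humidified; add CellTiter-Glo, 5 min room temperature; read luminescence.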

[19] = Quantitative High-Throughput drug screen in 47 multiple myeloma cell lines against the NCATS MIPE library collection: MMM1_PLB cell viability assay (AID 1918976); further: nearly all actives have a fitted effect of over 35% in size
In short: as §2

[20] = Quantitative High-Throughput drug screen in 47 multiple myeloma cell lines against the NCATS MIPE library collection: NCIH929_DSMZ cell viability assay (AID 1918978); further: nearly all actives have a fitted effect of over 35% in size
In short: as §2
Potency means the concentration at half of the fitted maximal effect.

Compound	Potency [1]	Potency [2]	Potency [3]	Potency [4]	Potency [5]	Potency [6]	Potency [7]	Potency [8]	Potency [9]	Potency [10]	Potency [11]	Potency [12]	Potency [13]	Potency [14]	Potency [15]	Potency [16]	Potency [17]	Potency [18]	Potency [19]	Potency [20]
COc1ccc(OC)c(-c2nnc3ccc(-c4ccc(OC)c(O[C@@H]5CCOC5)c4)nn23)c1	active: 5.26 µM	active: 7.43 µM	active: 14.8 µM	active: 10.5 µM	inconclusive: 23.5 µM [cytotoxic, partial curve, poor fit]	inconclusive: 3.32 µM [cytotoxic, full curve, poor fit]	active: 16.6 µM	active: 18.7 µM	active: 7.43 µM											
O=S(=O)(NCCNCC=Cc1ccc(Br)cc1)c1cccc2cnccc12	active: 11.8 µM	inconclusive: 11.8 µM [cytotoxic, full curve, poor fit]	active: 7.43 µM	active: 2.96 µM	inconclusive: 18.7 µM [cytotoxic, partial curve, poor fit]	active: 23.5 µM	active: 14.8 µM		active: 20.9 µM	inconclusive: 18.7 µM [cytotoxic, partial curve]	active: 2.64 µM									
NCCCCNCCCN	active: 18.7 µM	inconclusive: 37.2 µM [cytotoxic, partial curve, poor fit]	active: 16.6 µM	inconclusive: 0.0059 µM [rising, full curve, poor fit]	active: 9.35 µM		active: 14.8 µM				inconclusive: 29.6 µM [cytotoxic, single point]	inconclusive: 33.2 µM [cytotoxic, single point]	active: 20.9 µM							
CCc1c2c(nc3ccc(OC(=O)N4CCC(N5CCCCC5)CC4)cc13)-c1cc3c(c(=O)n1C2)COC(=O)[C@]3(O)CC	inconclusive: 1.18 µM [cytotoxic, partial curve, poor fit]	inconclusive: 37.2 µM [rising, partial curve, poor fit]			active: 1.18 µM				active: 0.166 µM	inconclusive: 6.62 µM [cytotoxic, partial curve]			inconclusive: 0.296 µM [cytotoxic, full curve]	active: 0.148 µM	active: 1.32 µM	active: 1.05 µM				
Cc1[nH]c(C=C2C(=O)Nc3ccc(S(=O)(=O)N(C)c4cccc(Cl)c4)cc32)c(C)c1C(=O)N1CCN(C)CC1	active: 5.26 µM	inconclusive: 29.6 µM [rising, partial curve, poor fit]		inconclusive: 8.33 µM [cytotoxic, partial curve, poor fit]			inconclusive: 29.6 µM [cytotoxic, partial curve, poor fit]			inconclusive: 33.2 µM [cytotoxic, single point]			active: 11.8 µM	inconclusive: 26.4 µM [cytotoxic, partial curve, poor fit]						
CCOc1cc2ncc(C#N)c(Nc3ccc(F)c(Cl)c3)c2cc1NC(=O)C=CCN(C)C	active: 4.69 µM	inconclusive: 11.8 µM [rising, full curve, poor fit]		inconclusive: 0.0074 µM [cytotoxic, full curve, poor fit]			active: 0.264 µM	active: 16.6 µM												
CN(C)CCN1C(=O)c2cccc3cc(N)cc(c23)C1=O	inconclusive: 16.6 µM [cytotoxic, partial curve, poor fit]	inconclusive: 20.9 µM [cytotoxic, partial curve, poor fit]			active: 23.5 µM	inconclusive: 37.2 µM [cytotoxic, partial curve, poor fit]				active: 23.5 µM				active: 23.5 µM	active: 14.8 µM	active: 9.35 µM	inconclusive: 29.6 µM [cytotoxic, single point]			
COc1ccc(CCN2CCN(CCCc3ccccc3)CC2)cc1OC	inconclusive: 23.5 µM [cytotoxic, partial curve, poor fit]		inconclusive: 23.5 µM [cytotoxic, partial curve, poor fit]	inconclusive: 0.001 µM	inconclusive: 4.18 µM [rising, partial curve]	inconclusive: 37.2 µM [cytotoxic, single point]	inconclusive: 18.7 µM [cytotoxic, partial curve, poor fit]		inconclusive: 23.5 µM [cytotoxic, single point]	inconclusive: 0.59 µM [rising, full curve, poor fit]		inactive		inactive	inconclusive: 33.2 µM [cytotoxic, single point]	inactive	inactive	inconclusive: 0.0047 µM [rising, full curve, poor fit]	inconclusive: 18.7 µM [cytotoxic, partial curve, poor fit]	inactive
O=C(Nc1cccc(Cl)c1)Nc1ncc(CCNc2ncnc3ccsc23)s1	inconclusive: 0.469 µM [cytotoxic, full curve, poor fit]	inconclusive: 33.2 µM [rising, partial curve]	inconclusive: 8.33 µM [cytotoxic, full curve, poor fit]	inconclusive: 7.43 µM [cytotoxic, single point]		active: 0.264 µM			active: 16.6 µM				active: 1.32 µM	active: 3.72 µM						active: 7.43 µM
CCC1(C)CC(=O)NC1=O (centres undefined)	inconclusive: 0.0093 µM [rising, full curve, poor fit]		inconclusive: 0.0187 µM [rising, full curve, poor fit]	inconclusive: 8.33 µM [rising, single point]	inactive	inactive		inconclusive: 11.8 µM [cytotoxic, single point]	inactive	inactive				inconclusive: 6.62 µM [cytotoxic, partial curve, poor fit]	inactive			inactive	inactive	
C=CC1=C(C(=O)O)N2C(=O)[C@@H](NC(=O)C(=NO)c3csc(N)n3)[C@H]2SC1	inconclusive: 0.0662 µM [rising, full curve, poor fit]		inactive	inconclusive: 0.0053 µM [cytotoxic, full curve, poor fit]		inconclusive: 0.526 µM [cytotoxic, full curve, poor fit]	inactive	inconclusive: 0.0332 µM [rising, full curve, poor fit]	inconclusive: 0.0083 µM [rising, full curve, poor fit]	inactive	inactive		inactive	inconclusive: 0.0418 µM [rising, full curve, poor fit]	inactive			inactive	inconclusive: 0.0118 µM [rising, full curve]	inactive
COCCCOc1ccnc(CS(=O)c2nc3ccccc3[nH]2)c1C (centres undefined)	inconclusive: 11.8 µM [cytotoxic, single point]		inconclusive: 20.9 µM [cytotoxic, partial curve, poor fit]	inactive		inconclusive: 11.8 µM [cytotoxic, partial curve, poor fit]		inconclusive: 9.35 µM [rising, partial curve, poor fit]	inactive	inactive		inactive	inactive	inconclusive: 0.0372 µM [rising, single point]	inconclusive: 0.0235 µM [rising, full curve, poor fit]			inactive	inconclusive: 0.0118 µM [rising, full curve, poor fit]	
CN1CCN(c2c(F)cc3c(=O)c(C(=O)O)cn(CCF)c3c2F)CC1	inconclusive: 0.0296 µM [rising, full curve, poor fit]		inactive	inactive	inconclusive: 0.001 µM	inconclusive: 11.8 µM [rising, partial curve, poor fit]	inconclusive: 0.0017 µM [rising, full curve, poor fit]	inconclusive: 0.0037 µM [rising, full curve, poor fit]	inconclusive: 0.0074 µM [rising, full curve, poor fit]	inconclusive: 0.003 µM [rising, full curve, poor fit]	inconclusive: 37.2 µM [cytotoxic, single point]		inactive	inactive	inconclusive: 0.003 µM [rising, full curve, poor fit]	inactive		inconclusive: 7.43 µM [rising, single point]	inconclusive: 0.0132 µM [rising, full curve]	

Random excerpt: two compounds from above
Compound	Potency [1]	Potency [2]	Potency [3]	Potency [4]	Potency [5]	Potency [6]	Potency [7]	Potency [8]	Potency [9]	Potency [10]	Potency [11]	Potency [12]	Potency [13]	Potency [14]	Potency [15]	Potency [16]	Potency [17]	Potency [18]	Potency [19]	Potency [20]
O=S(=O)(NCCNCC=Cc1ccc(Br)cc1)c1cccc2cnccc12	active: 11.8 µM	inconclusive: 11.8 µM [cytotoxic, full curve, poor fit]	active: 7.43 µM	active: 2.96 µM	inconclusive: 18.7 µM [cytotoxic, partial curve, poor fit]	active: 23.5 µM	active: 14.8 µM		active: 20.9 µM	inconclusive: 18.7 µM [cytotoxic, partial curve]	active: 2.64 µM									
CN(C)CCN1C(=O)c2cccc3cc(N)cc(c23)C1=O	inconclusive: 16.6 µM [cytotoxic, partial curve, poor fit]	inconclusive: 20.9 µM [cytotoxic, partial curve, poor fit]			active: 23.5 µM	inconclusive: 37.2 µM [cytotoxic, partial curve, poor fit]				active: 23.5 µM				active: 23.5 µM	active: 14.8 µM	active: 9.35 µM	inconclusive: 29.6 µM [cytotoxic, single point]			
